Details: PAMPA

**Q.** With `CC(C)NCC(O)COc1ccc(CC(N)=O)cc1` (stereo not shown) [Atenolol, reference compound] as the compound, how does the “prediction of CNS penetration” value read?
**A.** The value was “CNS−”.

Source: PMC12169679 (Journal of Medicinal Chemistry, 2025)
